In publication PMC10121563 (2023):
Results are given in words; binding and its absence hold for the method and conditions named. Some results given as binding are weak or reduced against the parent protein; the word gives no strength. Tags and fused reporters may be left off the sequences shown.

T1: GST::OsABI5 fusion protein (rice (Oryza sativa)) (UniProt Q8RZ35)
T1 sequence: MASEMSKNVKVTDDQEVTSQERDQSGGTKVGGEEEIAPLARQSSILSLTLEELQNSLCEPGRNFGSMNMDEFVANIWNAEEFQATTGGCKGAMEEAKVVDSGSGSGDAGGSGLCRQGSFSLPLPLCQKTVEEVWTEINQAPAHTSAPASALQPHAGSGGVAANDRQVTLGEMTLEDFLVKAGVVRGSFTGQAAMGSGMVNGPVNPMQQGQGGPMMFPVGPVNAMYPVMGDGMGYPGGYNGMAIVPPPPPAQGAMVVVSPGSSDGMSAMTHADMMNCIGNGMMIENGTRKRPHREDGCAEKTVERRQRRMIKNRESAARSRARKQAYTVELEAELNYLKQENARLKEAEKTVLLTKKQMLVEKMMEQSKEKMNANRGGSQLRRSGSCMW

B1: MBP::OsJAZ6 fusion protein (protein)
chain: MASAKSGERGSSSFAMACSLLSRYVRQNGAAAGELGLGIRGEADANKGKETMELFPQNSGFGSEAAAVKETPDAREQEKRQLTIFYGGKVLVFDDFPAEKAKDLMQMASKSSSTAQNCVLLPSSATATVADNTKVSAVPAPASALPVAQANAPKPVRPNAADLPQARKASLHRFLEKRKDRLQAKAPYQGSPSDASPVKKELQESQPWLGLGPQVAAPDLSLRQESSQ
B2: MBP::OsJAZ7 fusion protein (protein)
chain: MAASARPVGVGGERATSFAMACSLLSRYVRQNGAAAAELGLGIRGEGEAPRAAPATMSLLPGEAERKKETMELFPQSAGFGQQDAITADSAADAREQEPEKRQLTIFYGGKVLVFNDFPADKAKGLMQLASKGSPVAPQNAAAPAPAAVTDNTKAPMAVPAPVSSLPTAQADAQKPARANASDMPIARKASLHRFLEKRKDRLNAKTPYQASPSDATPVKKEPESQPWLGLGPNAVVKPIERGQ

Biological target: T1, GST::OsABI5 fusion protein (rice (Oryza sativa))
Assay: pull-down; 2 μg MBP::OsJAZ6 or MBP::OsJAZ7 prey incubated with 2 μg immobilized GST, GST::OsABI3 or GST::OsABI5 bait; washed three times; immunoblot with anti-GST and anti-MBP; both purified

Binder | binding
B1 | binds
B2 | binds
